Publication PMC5917001, “Counter-ion effect on antistaphylococcal activity and cytotoxicity of selected antimicrobial peptides” (Amino Acids, 2018)
Counter-ions that a name gives are not always drawn. Where a SMILES comes first, the peptide text is derived from it.

Test system: human keratinocytes (HaCaT)
Settings: IC50 on HaCaT divided by mean MIC on S. aureus strains

Row | SMILES | Selectivity index (IC50/MIC)
1 | CC[C@H](C)[C@H](NC(=O)[C@H](CCCCN)NC(=O)[C@H](CCCCN)NC(=O)[C@H](Cc1ccccc1)NC(=O)[C@H](CC(C)C)NC(=O)[C@H](CCCCN)NC(=O)[C@H](Cc1c[nH]c2ccccc12)NC(=O)[C@@H](N)CCCCN)C(=O)NCC(=O)N[C@@H](C)C(=O)N[C@H](C(=O)N[C@@H](CC(C)C)C(=O)N[C@@H](CCCCN)C(=O)N[C@H](C(=O)N[C@@H](CC(C)C)C(N)=O)C(C)C)C(C)C [CAMEL TFA^−] (H-KWKLFKKIGAVLKVL-NH2; N-terminus assumed) | ≥ 0.95
2 | CC[C@H](C)[C@H](NC(=O)CNC(=O)[C@H](CO)NC(=O)[C@H](CC(C)C)NC(=O)[C@@H](NC(=O)[C@H](CCCNC(=N)N)NC(=O)CNC(=O)[C@@H](NC(=O)[C@H](CC(C)C)NC(=O)[C@@H]1CCCN1C(=O)[C@H](CC(C)C)NC(=O)[C@@H](N)Cc1ccccc1)[C@@H](C)CC)C(C)C)C(=O)N[C@@H](CC(C)C)C(N)=O [Temporin A Cl^−] (H-FLPLIGRVLSGIL-NH2; N-terminus assumed) | 0.60
3 | CC[C@H](C)[C@H](NC(=O)[C@@H](NC(=O)[C@H](CO)NC(=O)[C@H](C)NC(=O)[C@@H](NC(=O)[C@H](CCCCN)NC(=O)[C@H](CCCCN)NC(=O)[C@@H](NC(=O)[C@@H](NC(=O)[C@H](CC(=O)O)NC(=O)[C@H](Cc1ccccc1)NC(=O)[C@H](CC(C)C)NC(=O)CN)C(C)C)[C@@H](C)CC)C(C)C)C(C)C)C(=O)NCC(=O)NCC(=O)N[C@@H](CC(C)C)C(N)=O [Citropin 1.1 AcO^−] (H-GLFDVIKKVASVIGGL-NH2; N-terminus assumed) | 0.44
4 | CC[C@H](C)[C@H](NC(=O)[C@H](CCCCN)NC(=O)[C@H](CCCCN)NC(=O)[C@H](Cc1ccccc1)NC(=O)[C@H](CC(C)C)NC(=O)[C@H](CCCCN)NC(=O)[C@H](Cc1c[nH]c2ccccc12)NC(=O)[C@@H](N)CCCCN)C(=O)NCC(=O)N[C@@H](C)C(=O)N[C@H](C(=O)N[C@@H](CC(C)C)C(=O)N[C@@H](CCCCN)C(=O)N[C@H](C(=O)N[C@@H](CC(C)C)C(N)=O)C(C)C)C(C)C [CAMEL AcO^−] (H-KWKLFKKIGAVLKVL-NH2; N-terminus assumed) | ≥ 0.97
5 | CC[C@H](C)[C@H](NC(=O)[C@H](CCCCN)NC(=O)[C@H](CCCCN)NC(=O)[C@H](Cc1ccccc1)NC(=O)[C@H](CC(C)C)NC(=O)[C@H](CCCCN)NC(=O)[C@H](Cc1c[nH]c2ccccc12)NC(=O)[C@@H](N)CCCCN)C(=O)NCC(=O)N[C@@H](C)C(=O)N[C@H](C(=O)N[C@@H](CC(C)C)C(=O)N[C@@H](CCCCN)C(=O)N[C@H](C(=O)N[C@@H](CC(C)C)C(N)=O)C(C)C)C(C)C [CAMEL Cl^−] (H-KWKLFKKIGAVLKVL-NH2; N-terminus assumed) | ≥ 1.25
6 | CC[C@H](C)[C@H](NC(=O)[C@@H](NC(=O)[C@H](CO)NC(=O)[C@H](C)NC(=O)[C@@H](NC(=O)[C@H](CCCCN)NC(=O)[C@H](CCCCN)NC(=O)[C@@H](NC(=O)[C@@H](NC(=O)[C@H](CC(=O)O)NC(=O)[C@H](Cc1ccccc1)NC(=O)[C@H](CC(C)C)NC(=O)CN)C(C)C)[C@@H](C)CC)C(C)C)C(C)C)C(=O)NCC(=O)NCC(=O)N[C@@H](CC(C)C)C(N)=O [Citropin 1.1 TFA^−] (H-GLFDVIKKVASVIGGL-NH2; N-terminus assumed) | 0.23
7 | CC[C@H](C)[C@H](NC(=O)[C@@H](NC(=O)[C@H](CO)NC(=O)[C@H](C)NC(=O)[C@@H](NC(=O)[C@H](CCCCN)NC(=O)[C@H](CCCCN)NC(=O)[C@@H](NC(=O)[C@@H](NC(=O)[C@H](CC(=O)O)NC(=O)[C@H](Cc1ccccc1)NC(=O)[C@H](CC(C)C)NC(=O)CN)C(C)C)[C@@H](C)CC)C(C)C)C(C)C)C(=O)NCC(=O)NCC(=O)N[C@@H](CC(C)C)C(N)=O [Citropin 1.1 Cl^−] (H-GLFDVIKKVASVIGGL-NH2; N-terminus assumed) | 0.41
